In paper PMC8301222:
No constants are given. Whether binding was seen depends on the method and setting. Binding seen in cells or lysates may run through a third protein. Some entries that bind do so weakly or less than the wild type.

Sequences of proteins named here, by UniProt entry; tags and fusion partners are left off.
UniProt P35637: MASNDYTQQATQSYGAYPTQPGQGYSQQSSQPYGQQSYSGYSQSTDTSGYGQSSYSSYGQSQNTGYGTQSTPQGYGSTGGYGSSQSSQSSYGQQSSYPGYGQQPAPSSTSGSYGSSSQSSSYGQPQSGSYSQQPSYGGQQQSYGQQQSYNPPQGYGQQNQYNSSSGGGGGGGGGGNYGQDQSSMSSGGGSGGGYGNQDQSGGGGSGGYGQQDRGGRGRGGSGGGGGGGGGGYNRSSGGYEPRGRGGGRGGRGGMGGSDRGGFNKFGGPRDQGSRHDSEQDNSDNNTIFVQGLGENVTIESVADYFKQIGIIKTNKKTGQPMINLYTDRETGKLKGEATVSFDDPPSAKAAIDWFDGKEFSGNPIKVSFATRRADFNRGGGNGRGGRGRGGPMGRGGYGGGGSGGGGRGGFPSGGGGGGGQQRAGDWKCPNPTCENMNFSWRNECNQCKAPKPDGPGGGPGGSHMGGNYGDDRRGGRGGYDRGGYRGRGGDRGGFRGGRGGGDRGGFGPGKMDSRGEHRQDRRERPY
UniProt Q9UBN7: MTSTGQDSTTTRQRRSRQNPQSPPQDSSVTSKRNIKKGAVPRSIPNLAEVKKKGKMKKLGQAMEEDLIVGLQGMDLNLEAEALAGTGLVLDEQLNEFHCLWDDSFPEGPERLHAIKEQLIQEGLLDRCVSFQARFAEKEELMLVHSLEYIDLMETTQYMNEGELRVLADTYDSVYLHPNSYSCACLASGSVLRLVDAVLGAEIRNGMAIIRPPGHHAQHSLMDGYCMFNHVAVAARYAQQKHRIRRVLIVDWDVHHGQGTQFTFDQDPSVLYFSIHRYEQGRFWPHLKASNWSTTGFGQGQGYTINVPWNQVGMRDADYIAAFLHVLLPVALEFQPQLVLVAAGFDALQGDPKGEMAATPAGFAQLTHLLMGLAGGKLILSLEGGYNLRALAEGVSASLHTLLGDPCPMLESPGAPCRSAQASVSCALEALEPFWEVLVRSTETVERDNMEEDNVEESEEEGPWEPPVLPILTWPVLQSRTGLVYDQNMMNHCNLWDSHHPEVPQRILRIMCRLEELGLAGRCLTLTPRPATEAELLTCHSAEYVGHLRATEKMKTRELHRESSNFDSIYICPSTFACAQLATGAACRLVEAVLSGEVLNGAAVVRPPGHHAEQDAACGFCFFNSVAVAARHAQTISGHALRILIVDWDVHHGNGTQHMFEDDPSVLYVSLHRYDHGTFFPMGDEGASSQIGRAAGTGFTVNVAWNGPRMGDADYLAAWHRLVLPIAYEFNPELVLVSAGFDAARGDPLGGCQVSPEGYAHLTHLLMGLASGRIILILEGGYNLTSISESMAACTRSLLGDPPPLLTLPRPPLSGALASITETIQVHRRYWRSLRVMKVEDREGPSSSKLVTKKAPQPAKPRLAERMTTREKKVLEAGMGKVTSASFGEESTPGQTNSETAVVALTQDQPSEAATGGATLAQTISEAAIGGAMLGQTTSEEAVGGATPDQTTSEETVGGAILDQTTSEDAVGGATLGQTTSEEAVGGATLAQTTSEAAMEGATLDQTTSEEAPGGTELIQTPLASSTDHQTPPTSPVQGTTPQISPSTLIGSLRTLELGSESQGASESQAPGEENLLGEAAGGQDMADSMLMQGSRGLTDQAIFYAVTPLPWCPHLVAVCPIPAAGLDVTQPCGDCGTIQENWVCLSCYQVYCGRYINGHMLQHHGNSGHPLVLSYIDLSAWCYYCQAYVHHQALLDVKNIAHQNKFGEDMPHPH

Molecular target: FUS (FUS RNA binding protein) (human (endogenous in HUVECs)) (UniProt P35637)
Test: co-IP; ox-LDL-treated HUVECs lysed in non-denaturing lysis buffer; about 300 ug protein with 1 ug FUS antibody and protein A/G magnetic beads at 4 C overnight; bound proteins blotted with HDAC6 antibody; rabbit IgG as negative control; results speak of the nucleus

binding: binds
Substance: histone deacetylase 6 (HDAC6) (from UniProt Q9UBN7 1-1215) (enzyme)
